Results as given in PubChem BioAssay AID624297 (National Center for Advancing Translational Sciences (NCATS), 2012).
Among all 340,000 compounds or so, about 6,200 (1.8%) were called active. This list was built around the results that the source calls inconclusive (neither active nor inactive); the mix of calls is not that of the screen. The call rests on the fitted dose curve; in most records, active means well fitted activation curve with a large enough effect; inconclusive means small, poorly fitted or top-dose-only effect; inactive means no such curve, though single readings can be large or run the other way. Potencies beside an inconclusive call are fits to weak or partial responses and may not hold up.

Assay: A quantitative high throughput screen for small molecules that induce DNA re-replication in SW480 colon adenocarcinoma cells. Further: nearly all actives have a fitted effect of over 55% in size. On re-replication activation: % of control where 0% means no effect.
Details: Hoechst DNA content imaging, 48 h; re-replication activation: at 46.1 µM (top of the series) unless noted
Summary of the method: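 Compounds, transferred as 23 nL by pin tool, were incubated with cells for 48 hr; DNA content per nucleus was then quantified by Hoechst staining and fluorescence plate imaging.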
Potency means the concentration at half of the fitted maximal effect.

SMILES | Potency | re-replication activation
Cc1cc([N+](=O)[O-])ccc1NC(=O)c1cc2ccccc2o1 | inconclusive: 6.51 µM [activator, single point] | –
Cc1ccc(Oc2nnc(-c3ccc(C)cc3)c3ccccc23)cc1 | inactive | –
CCOC(=O)c1c(NC(C)=O)sc2c(OCC(O)CNC(C)(C)C)c(Br)ccc12 (stereo unspecified) | inconclusive: 23.1 µM [activator, single point] | –
COc1ccc(C(=O)c2c(N)sc3c2CCN(C)C3)cc1 | inconclusive: 23.1 µM [activator, single point] | –
O=C(Nc1ccccc1)C1=C[C@@H](c2ccccc2)C[C@@H](OCc2ccc(CO)cc2)O1 | inactive | –
COc1cc(OC)cc(C(=O)Nc2ccc(Nc3ccccc3)cc2)c1 | inactive | –
FC(F)(F)Oc1ccc(NC(=S)Nc2ccccc2N2CCOCC2)cc1 | inactive | –
CC(C)c1ccc(S(=O)(=O)/N=C2/C=C(Sc3ncn[nH]3)C(=O)c3ccccc32)cc1 | active: 10.3 µM | –
COc1ccccc1N1CCN(C(=O)c2cccc(C(=O)N3CCN(c4ccccc4OC)CC3)c2)CC1 | – | inactive: 3.64% [at 1.84 µM]
CSCCC(NS(=O)(=O)c1ccc(Cl)cc1)C(=O)OCc1c(Cl)cccc1Cl (stereo unspecified) | inconclusive: 29.1 µM [activator, single point] | –
Nc1c(C(=O)c2ccc(Br)s2)oc2ccccc12 | inconclusive: 20.6 µM [activator, single point] | –
CO[C@H]1CC[C@@]2(C)[C@@H](CC[C@@H]3[C@@H]2CC[C@@]2(C)[C@H]3C[C@H](C(=O)O)O[C@]23CCCO3)C1 | inconclusive: 1.84 µM [activator, partial curve, poor fit] | –
CC(C)CCNC(=O)C(=O)Nc1ccc2c(c1)N(S(=O)(=O)c1cccs1)CCC2 | inconclusive: 7.31 µM [activator, partial curve, poor fit] | –
O=C(CCSc1ccc(Cl)cc1)NC12CC3CC(CC(C3)C1)C2 | inconclusive: 29.1 µM [activator, partial curve, poor fit] | –
CCSc1nc(O)cc(=O)[nH]1 | inactive | –
CCC(c1nnc(SCC(=O)Nc2nnc(-c3ccccc3)o2)o1)N(C)C (stereo unspecified) | inactive | –
Cc1ccc2nc(N/N=C/c3ccccc3C#N)nc(-c3ccccc3)c2c1 | inconclusive: 20.6 µM [activator, single point] | –
COc1ccc(NC(=O)c2cc(-c3ccco3)nc3ccccc23)cc1S(=O)(=O)N1CCOCC1 | inactive | –
CCN(CC)CCn1c(NCc2nc3ccccc3n2Cc2ccccc2)nc2ccccc21 | inconclusive: 16.4 µM [activator, single point] | –
COC(=O)C(CC(=O)c1ccccc1)CC(=O)c1ccccc1 | – | inconclusive: -29.6% [activator]
COc1cc(Cn2nnc3ccccc32)ccc1O | inconclusive: 29.1 µM [activator, single point] | –
CC1(C)CCC[C@]2(C)[C@H]3Cc4cc(O)ccc4O[C@]3(C)CC[C@@H]12 | inactive | –
COc1ccc(/C(N)=N/OC(=O)Cc2ccc(C)cc2)cc1OC | active: 2.91 µM | –

An excerpt from above in order of formula weight, largest number first.
SMILES | Potency | re-replication activation
CSCCC(NS(=O)(=O)c1ccc(Cl)cc1)C(=O)OCc1c(Cl)cccc1Cl (stereo unspecified) | inconclusive: 29.1 µM [activator, single point] | –
CCN(CC)CCn1c(NCc2nc3ccccc3n2Cc2ccccc2)nc2ccccc21 | inconclusive: 16.4 µM [activator, single point] | –
CC(C)c1ccc(S(=O)(=O)/N=C2/C=C(Sc3ncn[nH]3)C(=O)c3ccccc32)cc1 | active: 10.3 µM | –
O=C(Nc1ccccc1)C1=C[C@@H](c2ccccc2)C[C@@H](OCc2ccc(CO)cc2)O1 | inactive | –
COc1ccc(/C(N)=N/OC(=O)Cc2ccc(C)cc2)cc1OC | active: 2.91 µM | –
Cc1ccc(Oc2nnc(-c3ccc(C)cc3)c3ccccc23)cc1 | inactive | –
Nc1c(C(=O)c2ccc(Br)s2)oc2ccccc12 | inconclusive: 20.6 µM [activator, single point] | –
COC(=O)C(CC(=O)c1ccccc1)CC(=O)c1ccccc1 | – | inconclusive: -29.6% [activator]
COc1ccc(C(=O)c2c(N)sc3c2CCN(C)C3)cc1 | inconclusive: 23.1 µM [activator, single point] | –

Further results.

SMILES | Potency | re-replication activation
CCN(c1ccccc1)S(=O)(=O)c1cccc(C(=O)NCC(c2ccco2)N2CCCCC2)c1 (stereo unspecified) | inconclusive: 20.6 µM [activator, single point] | –
CCOC(=O)C(C#N)=CN1CCNc2ccccc21 | inactive | –
COC(=O)c1cc(NC(=O)c2ccc([N+](=O)[O-])cc2)c(=O)oc1C | inconclusive: 9.2 µM [activator, partial curve] | –
O=C(N/N=C\c1cn(-c2ccccc2)nc1-c1ccccc1)c1ccc(Br)o1 | inconclusive: 18.4 µM [activator, partial curve, poor fit] | –
C[C@@H](NS(=O)(=O)c1ccc(Br)cc1F)[C@@H](O)c1ccccc1 | inconclusive: 9.2 µM [activator, partial curve] | –
O=C(NCc1ccccn1)C1CCC(=O)N1C1CCCC1 (stereo unspecified) | inactive | –
CCOC(=O)c1cnc(-n2nc(C)cc2C)nc1NNc1nc(-c2ccccc2)cc(-c2ccccc2)n1 | inconclusive: 6.51 µM [activator, partial curve] | –
O=[N+]([O-])c1ccc(S(=O)(=O)c2cccc(C(F)(F)F)c2)nc1 | active: 4.11 µM | –
COCCCn1c(SCC(=O)N2CCOCC2)nc2ccccc2c1=O | inactive | –
CCCNc1c(NC(=O)c2cccs2)c(=O)oc2ccccc12 | inconclusive: 7.31 µM [activator, partial curve, poor fit] | –
CCOP(=O)(OCC)c1nc(/C=C/c2ccccc2)oc1NCc1ccc(OC)cc1 | inconclusive: 29.1 µM [activator, single point] | –
O=C(O)CCc1nn2c3ccccc3n(Cc3ccccc3)c2nc1=O | inconclusive: 29.1 µM [activator, single point] | –
COc1cc(/C=C(/Sc2nnc(-c3ccc(F)cc3)o2)C(=O)O)ccc1OC(F)F | inconclusive: 20.6 µM [activator, single point] | –
Fc1cccc(F)c1/C=N/Nc1ccccn1 | inactive | –
COc1ccccc1NCC(=O)NNCC(=O)Nc1ccc(F)c(Cl)c1 | inconclusive: 1.84 µM [activator, partial curve, poor fit] | –
CN(CCOc1ccc(Br)cc1)CC(O)COc1ccc(C#N)cc1 (stereo unspecified) | inconclusive: 29.1 µM [activator, single point] | –
COC(=O)/C(=C/c1ccccc1)NC(=O)c1ccco1 | inactive | –
COc1ccc(CN2CCNC(=O)C2CC(=O)NC2CCCCCCC2)cc1C (stereo unspecified) | inactive | –
O=C(Nc1nnc(C2CC2)s1)C1Cc2ccccc2CN1S(=O)(=O)c1ccccc1F (stereo unspecified) | inconclusive: 29.1 µM [activator, single point] | –
O=C(NCC1CCCO1)C(=O)c1c[nH]c2ccccc12 (stereo unspecified) | inconclusive: 16.4 µM [activator, single point] | –
CCOC(=O)NNc1ccc2nonc2c1[N+](=O)[O-] | active: 23.1 µM | –
COc1ccc(N2C(=O)CCC(C(=O)N3CCCCC3)C2c2ccc(F)cc2)cc1 (stereo unspecified) | inactive | –
Cc1[nH]c2ccccc2c1/C=N/Nc1cccc(C(=O)O)c1 | inactive | –
